{"source": "PubChem BioAssay AID1259254 (NCATS, 2017)", "aim": "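Finding genes that stop cells copying their DNA twice in one cycle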 (primary screen)", "cells": "human HCT116 colorectal cancer cells", "knock-down reagent": "single siRNA against human genes", "timing": "3 days", "measurement": "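Imaged Hoechst DNA stain sorts each cell into a cycle phase by DNA amount; per plate, G2 fraction set to 0% for non-targeting and 100% for GMNN siRNA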", "direction": "G2 robust z-score: higher = more G2 cells, more excess DNA replication", "call rule": "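An siRNA counts as active if its G2 robust z-score lies at least 5 MADs above the screen median; here such calls match roughly 38% of GMNN control or more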", "note": "Here is one part, drawn at random, of about 59,000 deposited reagents. Over the whole deposit, about 1,550 (2.6%) were called active. 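G2 share is only a proxy for re-replication; each gene was hit by three separate siRNAs, and active genes were retested.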 The numbers tell different reagents against one gene apart. Further read-outs or replicates are left out here. The record does not give: the amount of reagent."}
The first 2 records, to show the layout:
{"gene knocked down":"TNPO2 (GeneID 30000)","reagent no.":1,"G2 robust z-score":-0.761,"outcome":"inactive"}
{"gene knocked down":"TNPO2 (GeneID 30000)","reagent no.":2,"G2 robust z-score":0.388,"outcome":"inactive"}

Main list, from the start:
{"gene knocked down":"TNPO2 (GeneID 30000)","reagent no.":1,"G2 robust z-score":-0.761,"outcome":"inactive"}
{"gene knocked down":"TNPO2 (GeneID 30000)","reagent no.":2,"G2 robust z-score":0.388,"outcome":"inactive"}
{"gene knocked down":"TNPO2 (GeneID 30000)","reagent no.":3,"G2 robust z-score":-0.594,"outcome":"inactive"}
{"gene knocked down":"LAPTM4BP1 (GeneID 645900)","reagent no.":1,"G2 robust z-score":-0.211,"outcome":"inactive"}
{"gene knocked down":"LAPTM4BP1 (GeneID 645900)","reagent no.":2,"G2 robust z-score":0.157,"outcome":"inactive"}
{"gene knocked down":"LAPTM4BP1 (GeneID 645900)","reagent no.":3,"G2 robust z-score":-0.518,"outcome":"inactive"}
{"gene knocked down":"KCNAB1 (GeneID 7881)","reagent no.":1,"G2 robust z-score":1.2,"outcome":"inactive"}
{"gene knocked down":"KCNAB1 (GeneID 7881)","reagent no.":2,"G2 robust z-score":1.22,"outcome":"inactive"}
{"gene knocked down":"KCNAB1 (GeneID 7881)","reagent no.":3,"G2 robust z-score":0.746,"outcome":"inactive"}
{"gene knocked down":"UBTFL5 (GeneID 728231)","reagent no.":1,"G2 robust z-score":-0.152,"outcome":"inactive"}
{"gene knocked down":"UBTFL5 (GeneID 728231)","reagent no.":2,"G2 robust z-score":0.244,"outcome":"inactive"}
{"gene knocked down":"UBTFL5 (GeneID 728231)","reagent no.":3,"G2 robust z-score":-0.919,"outcome":"inactive"}
{"gene knocked down":"UBE2G1 (GeneID 7326)","reagent no.":1,"G2 robust z-score":-1.11,"outcome":"inactive"}
{"gene knocked down":"UBE2G1 (GeneID 7326)","reagent no.":2,"G2 robust z-score":1.36,"outcome":"inactive"}
{"gene knocked down":"UBE2G1 (GeneID 7326)","reagent no.":3,"G2 robust z-score":-0.567,"outcome":"inactive"}
{"gene knocked down":"S100A13 (GeneID 6284)","reagent no.":1,"G2 robust z-score":0.504,"outcome":"inactive"}
{"gene knocked down":"S100A13 (GeneID 6284)","reagent no.":2,"G2 robust z-score":0.225,"outcome":"inactive"}
{"gene knocked down":"S100A13 (GeneID 6284)","reagent no.":3,"G2 robust z-score":1.88,"outcome":"inactive"}
{"gene knocked down":"SLC35E2A (GeneID 9906)","reagent no.":1,"G2 robust z-score":0.595,"outcome":"inactive"}
{"gene knocked down":"SLC35E2A (GeneID 9906)","reagent no.":2,"G2 robust z-score":0.276,"outcome":"inactive"}
{"gene knocked down":"SLC35E2A (GeneID 9906)","reagent no.":3,"G2 robust z-score":-0.538,"outcome":"inactive"}
{"gene knocked down":"KAT2A (GeneID 2648)","reagent no.":1,"G2 robust z-score":0.316,"outcome":"inactive"}
{"gene knocked down":"KAT2A (GeneID 2648)","reagent no.":2,"G2 robust z-score":1.59,"outcome":"inactive"}
{"gene knocked down":"KAT2A (GeneID 2648)","reagent no.":3,"G2 robust z-score":-1.3,"outcome":"inactive"}
